Patent US20190144550A1
No constants are given. Whether binding was seen depends on the method and setting. Binding calls can cover weak binding; strength is not graded here. Tags and fused reporters may be left off the sequences shown.

target: Monomeric 8-histidine tagged human EGFRvIII extracellular domain (human); experiment: SPR, scFv-Fc captured by anti-human Fc, 37 C

Row | Binder | binding
1 | 14C11.HL scFv-Fc protein (Fc fusion, not shown: a dimerising Fc or GST) QVTLKESGPVLVKPTETLTLTCTVSGFSLNNARMGVSWIRQPPGKALEWFAHIFSTDEKSFRTSLRSRLTLSKDTSKSQVVLTMTNMDPVDTATYYCARDSSNYEGYFDYWGQGILVTVSSGGGGSGGGGSGGGGSGGGGSEIVMTQSPATLSVSPGERATLSCRASQSVSNNLAWYQQKPGQAPRLLIYGASTRATGVPARFSGSDSGTEFSLTISSLQSEDFAVYFCQQYKDWPFTFGPGTKVEIK | binds
2 | 20B9.HL scFv-Fc protein (Fc fusion, not shown: a dimerising Fc or GST) QVTLKESGPVLVKPTETLTLTCTVSGFSLSNARMGVSWIRQPPGKALEWLGHIFSTDEKSYSTSLRGRITISKDTSRGLVVLTLTNMDPVDTATYYCARDSSNYEGYFDFWGPGFLVTVSSGGGGSGGGGSGGGGSGGGGSEIVMTQSPATLSVSPGERATLSCRVSQSIGANLAWYQQKFGQAPRLLIYGASTRATGIPVRFSGGGSGTEFTLTISSLQSEDFAIYSCQQYIYWPFTFGPGTTVDIK | binds
3 | 26B9.HL scFv-Fc protein (Fc fusion, not shown: a dimerising Fc or GST) EVQLVESWGVLVKPGGSLRLSCAASGFIFNNAWMSWVRQAPGKGLEWIGRIKSKSDGGTTDYAAPVKDRFTISRDDSKDTLYLQMNGLKTEDTAVYFCTTAPGGPFDYWGQGTLVTVSSGGGGSGGGGSGGGGSGGGGSDIVLTQSPLSLPVTPGEPASISCRSSQSLLHRDGFNYLDWFLQKPGQSPQLLIYLASSRASGVPDRFSGSDSGTDFTLKISRVEAEDVGVYYCMQALQTPITFGQGTRLEIK | binds
4 | 20E12.LH scFv-Fc protein (Fc fusion, not shown: a dimerising Fc or GST) DIVLTQSPLSLSVTPGEPASISCRSSQSLLYSNGKNYLDWFLHKPGQSPQLLIYLGSNRASGVPDRFSGSGSGIDFILKISRVEAEDVGVYYCMQAQQTPITFGQGTRLEIKGGGGSGGGGSGGGGSGGGGSEVNLVESGGGLVKPGGSLRLSCEASGFTFSYAWMSWVRQAPGKGLEWVGRIKSIADGGATDYAAPVRNRFTISRDDSRNTLYLEMHSLKTEDTAVYYCTTIPGNDAFDMWGQGTMVTVSS | binds
5 | 20E12.HL scFv-Fc protein (Fc fusion, not shown: a dimerising Fc or GST) EVNLVESGGGLVKPGGSLRLSCEASGFTFSYAWMSWVRQAPGKGLEWVGRIKSIADGGATDYAAPVRNRFTISRDDSRNTLYLEMHSLKTEDTAVYYCTTIPGNDAFDMWGQGTMVTVSSGGGGSGGGGSGGGGSGGGGSDIVLTQSPLSLSVTPGEPASISCRSSQSLLYSNGKNYLDWFLHKPGQSPQLLIYLGSNRASGVPDRFSGSGSGIDFILKISRVEAEDVGVYYCMQAQQTPITFGQGTRLEIK | binds
6 | 20B9.LH scFv-Fc protein (Fc fusion, not shown: a dimerising Fc or GST) EIVMTQSPATLSVSPGERATLSCRVSQSIGANLAWYQQKFGQAPRLLIYGASTRATGIPVRFSGGGSGTEFTLTISSLQSEDFAIYSCQQYIYWPFTFGPGTTVDIKGGGGSGGGGSGGGGSGGGGSQVTLKESGPVLVKPTETLTLTCTVSGFSLSNARMGVSWIRQPPGKALEWLGHIFSTDEKSYSTSLRGRITISKDTSRGLVVLTLTNMDPVDTATYYCARDSSNYEGYFDFWGPGFLVTVSS | binds
7 | 14C11.LH scFv-Fc protein (Fc fusion, not shown: a dimerising Fc or GST) EIVMTQSPATLSVSPGERATLSCRASQSVSNNLAWYQQKPGQAPRLLIYGASTRATGVPARFSGSDSGTEFSLTISSLQSEDFAVYFCQQYKDWPFTFGPGTKVEIKGGGGSGGGGSGGGGSGGGGSQVTLKESGPVLVKPTETLTLTCTVSGFSLNNARMGVSWIRQPPGKALEWFAHIFSTDEKSFRTSLRSRLTLSKDTSKSQVVLTMTNMDPVDTATYYCARDSSNYEGYFDYWGQGILVTVSS | binds

The next lines start with the values.

Row | binding | Binder
8 | binds | 30D8.LH scFv-Fc protein (Fc fusion, not shown: a dimerising Fc or GST) DIVMTQSPLSLPVTPGEPASISCRSSQSLLHNKRNNYLDWFLQKPGQSPQLLIYLASNRASGVPDRFSGGGSGTDFTLKISRVEAEDVGVYYCMQAQQTPITFGQGTRLEIKGGGGSGGGGSGGGGSGGGGSEVQLVESGGGLVKPGGSLRLSCEASGFTFSDAWMSWVRQAPGKGLEWVGRIKSKTDGGTTDYVVPLNGRFIISRDDSRNTLYLQLNNLKTEDTAVYYCTTVPGSYGYWGQGTLVTVSS
9 | binds | 30D8.HL scFv-Fc protein (Fc fusion, not shown: a dimerising Fc or GST) EVQLVESGGGLVKPGGSLRLSCEASGFTFSDAWMSWVRQAPGKGLEWVGRIKSKTDGGTTDYVVPLNGRFIISRDDSRNTLYLQLNNLKTEDTAVYYCTTVPGSYGYWGQGTLVTVSSGGGGSGGGGSGGGGSGGGGSDIVMTQSPLSLPVTPGEPASISCRSSQSLLHNKRNNYLDWFLQKPGQSPQLLIYLASNRASGVPDRFSGGGSGTDFTLKISRVEAEDVGVYYCMQAQQTPITFGQGTRLEIK
10 | binds | 26B9.LH scFv-Fc protein (Fc fusion, not shown: a dimerising Fc or GST) DIVLTQSPLSLPVTPGEPASISCRSSQSLLHRDGFNYLDWFLQKPGQSPQLLIYLASSRASGVPDRFSGSDSGTDFTLKISRVEAEDVGVYYCMQALQTPITFGQGTRLEIKGGGGSGGGGSGGGGSGGGGSEVQLVESWGVLVKPGGSLRLSCAASGFIFNNAWMSWVRQAPGKGLEWIGRIKSKSDGGTTDYAAPVKDRFTISRDDSKDTLYLQMNGLKTEDTAVYFCTTAPGGPFDYWGQGTLVTVSS
11 | binds | 32A10.LH scFv-Fc protein (Fc fusion, not shown: a dimerising Fc or GST) EVVMTQSPATLSVSPGERVTLSCRASQSVSSNFAWYQQRPGQAPRLLLYGATTRATGLPGRFSGSGSGTENILTISSLQSEDFAIYFCQQYKDWPFTFGPGSKVDIKGGGGSGGGGSGGGGSGGGGSQVTLKESGPVLVKPTETLTLTCTVSGFSLSNARMGVSWIRQPPGKALEWLAHIFSTDEKSIRRSLRSRLTLSKDTSKSQVVLTMTNMDPVDTATYFCARDSSNYEGYFDYWGQGTLVTVSS
12 | binds | 32G8.HL scFv-Fc protein (Fc fusion, not shown: a dimerising Fc or GST) EVNLVESGGGLVKPGGSLRLSCEASGFTFSYAWMSWVRQAPGKGLEWVGRIKSITDGGVIDYAAPVRNRCTISRDDSRNTLYLEMHSLKTEDTAVYYCTTIPGNDDFDMWGQGRMVTVSSGGGGSGGGGSGGGGSGGGGSDIVLTQSPLSLSVTPGEPASISCRSSQSLLYSNGKNYLDWFLHKPGQSPQLLIYLGSNRASGVPDRFSGSGSGIDFILKISRVEAEDVGVYYCMQAQQTPITFGQGTRLEIK
13 | binds | 42G9.HL scFv-Fc protein (Fc fusion, not shown: a dimerising Fc or GST) QVTLKESGPVLLKPTETLTLTCTVSGFSLSNPRMGVSWIRQPPGKALEWFAHIFSTDEKSLKLSLRSRLTLSKDTSKSQVVLTMTNMAPVDSATYYCARDSSNYEGYFDFWGQGTLVTVSSGGGGSGGGGSGGGGSGGGGSEVVLTQSPATLSVSPGERATLSCRASQSVRSNLAWYQQKSGQAPRLLIYGSTIRATGVPARFSGSGSGTEFTLTISSLQSEDFAVYYCQQYSDWPFTFGPGTKVDIK
14 | binds | 32A10.HL scFv-Fc protein (Fc fusion, not shown: a dimerising Fc or GST) QVTLKESGPVLVKPTETLTLTCTVSGFSLSNARMGVSWIRQPPGKALEWLAHIFSTDEKSIRRSLRSRLTLSKDTSKSQVVLTMTNMDPVDTATYFCARDSSNYEGYFDYWGQGTLVTVSSGGGGSGGGGSGGGGSGGGGSEVVMTQSPATLSVSPGERVTLSCRASQSVSSNFAWYQQRPGQAPRLLLYGATTRATGLPGRFSGSGSGTENILTISSLQSEDFAIYFCQQYKDWPFTFGPGSKVDIK
15 | binds | h62G7-L6/EQ scFv-Fc protein (Fc fusion, not shown: a dimerising Fc or GST) DVVMTQSPLSLPVTLGQPASISCKSSQSLLYSNGKTYLNWFQQRPGQSPRRLIYQVSKLDSGVPDRFSGSGSGTDFTLKISRVEAEDVGVYYCGQDTHFPLTFGGGTKVEIKGGGGSGGGGSGGGGSGGGGSQVQLVQSGAEVKKPGASVKVSCKASGYTFTDYTLHWVRQAPGQGLEWMGGIWPITGGTTYNQKFKGRVTMTRDTSTSTVYMELSSLRSEDTAVYYCARGEAQGSWGQGTLVTVSS
16 | binds | 42G9.LH scFv-Fc protein (Fc fusion, not shown: a dimerising Fc or GST) EVVLTQSPATLSVSPGERATLSCRASQSVRSNLAWYQQKSGQAPRLLIYGSTIRATGVPARFSGSGSGTEFTLTISSLQSEDFAVYYCQQYSDWPFTFGPGTKVDIKGGGGSGGGGSGGGGSGGGGSQVTLKESGPVLLKPTETLTLTCTVSGFSLSNPRMGVSWIRQPPGKALEWFAHIFSTDEKSLKLSLRSRLTLSKDTSKSQVVLTMTNMAPVDSATYYCARDSSNYEGYFDFWGQGTLVTVSS
